Assay results taken from the supplement of paper PMC10849652.
Some of the results follow.

By UniProt entry, the sequences of proteins in these tests, tags left out. Where a name states a change or a piece, a line headed by the entry shows the natural chain unless it says otherwise.
UniProt Q8TCX1: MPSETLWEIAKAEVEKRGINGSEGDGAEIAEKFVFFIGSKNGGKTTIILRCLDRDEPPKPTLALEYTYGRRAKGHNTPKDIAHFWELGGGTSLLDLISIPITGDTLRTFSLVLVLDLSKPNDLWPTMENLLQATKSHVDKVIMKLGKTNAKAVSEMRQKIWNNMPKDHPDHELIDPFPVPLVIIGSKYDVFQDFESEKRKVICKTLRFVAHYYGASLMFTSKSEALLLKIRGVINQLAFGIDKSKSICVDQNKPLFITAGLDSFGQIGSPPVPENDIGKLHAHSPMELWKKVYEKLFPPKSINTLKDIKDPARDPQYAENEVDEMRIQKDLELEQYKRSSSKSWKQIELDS
UniProt Q9BV94: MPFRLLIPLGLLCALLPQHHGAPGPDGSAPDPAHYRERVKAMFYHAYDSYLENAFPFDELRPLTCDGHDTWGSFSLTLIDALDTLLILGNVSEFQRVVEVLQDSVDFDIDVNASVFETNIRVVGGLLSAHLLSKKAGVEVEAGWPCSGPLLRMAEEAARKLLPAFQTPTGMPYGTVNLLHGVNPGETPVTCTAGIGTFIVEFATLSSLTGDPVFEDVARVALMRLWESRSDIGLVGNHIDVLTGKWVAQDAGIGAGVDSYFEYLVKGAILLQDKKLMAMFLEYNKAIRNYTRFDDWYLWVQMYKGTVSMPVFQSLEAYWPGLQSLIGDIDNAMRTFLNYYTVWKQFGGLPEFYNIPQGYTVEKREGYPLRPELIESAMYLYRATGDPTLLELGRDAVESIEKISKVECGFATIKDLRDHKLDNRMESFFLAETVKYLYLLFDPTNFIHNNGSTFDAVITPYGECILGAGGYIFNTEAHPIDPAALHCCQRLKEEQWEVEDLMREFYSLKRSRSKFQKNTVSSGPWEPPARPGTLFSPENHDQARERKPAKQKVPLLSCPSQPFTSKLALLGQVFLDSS
UniProt Q66K89: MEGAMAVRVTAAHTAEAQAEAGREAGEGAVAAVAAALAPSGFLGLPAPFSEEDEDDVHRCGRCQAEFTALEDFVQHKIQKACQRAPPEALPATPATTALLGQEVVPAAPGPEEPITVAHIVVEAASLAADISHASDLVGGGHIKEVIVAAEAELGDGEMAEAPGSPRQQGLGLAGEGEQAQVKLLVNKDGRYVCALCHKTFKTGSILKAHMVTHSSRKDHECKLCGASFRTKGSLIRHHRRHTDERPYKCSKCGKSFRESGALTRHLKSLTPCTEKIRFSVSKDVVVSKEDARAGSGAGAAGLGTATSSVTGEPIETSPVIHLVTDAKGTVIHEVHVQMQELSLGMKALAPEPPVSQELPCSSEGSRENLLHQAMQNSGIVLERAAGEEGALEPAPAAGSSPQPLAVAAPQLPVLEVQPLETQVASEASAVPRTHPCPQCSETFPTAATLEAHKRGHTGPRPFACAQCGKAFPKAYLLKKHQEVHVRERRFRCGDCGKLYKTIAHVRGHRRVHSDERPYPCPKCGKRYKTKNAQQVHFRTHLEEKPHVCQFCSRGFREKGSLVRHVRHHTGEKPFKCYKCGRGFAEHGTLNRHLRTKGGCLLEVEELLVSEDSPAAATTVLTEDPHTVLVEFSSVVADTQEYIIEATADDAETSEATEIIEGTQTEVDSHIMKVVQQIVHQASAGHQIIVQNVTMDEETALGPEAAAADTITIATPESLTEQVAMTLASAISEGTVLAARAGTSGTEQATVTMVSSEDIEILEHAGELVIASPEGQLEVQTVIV
UniProt Q9UPQ8: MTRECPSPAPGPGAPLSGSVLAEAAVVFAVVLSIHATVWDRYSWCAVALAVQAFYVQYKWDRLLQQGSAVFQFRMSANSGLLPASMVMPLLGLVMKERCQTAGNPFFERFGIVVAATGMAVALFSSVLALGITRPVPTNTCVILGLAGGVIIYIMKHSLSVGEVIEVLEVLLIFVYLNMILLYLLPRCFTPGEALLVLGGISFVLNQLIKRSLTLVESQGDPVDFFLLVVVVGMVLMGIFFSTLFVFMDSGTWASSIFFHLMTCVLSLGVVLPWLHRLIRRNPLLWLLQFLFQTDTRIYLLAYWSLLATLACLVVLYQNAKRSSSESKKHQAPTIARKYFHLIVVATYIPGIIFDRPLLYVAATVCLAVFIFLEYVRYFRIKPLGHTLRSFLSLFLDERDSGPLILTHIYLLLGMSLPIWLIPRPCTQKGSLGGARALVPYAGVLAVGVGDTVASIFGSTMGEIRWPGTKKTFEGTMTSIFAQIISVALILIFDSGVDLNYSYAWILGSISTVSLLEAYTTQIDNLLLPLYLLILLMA
UniProt P51808: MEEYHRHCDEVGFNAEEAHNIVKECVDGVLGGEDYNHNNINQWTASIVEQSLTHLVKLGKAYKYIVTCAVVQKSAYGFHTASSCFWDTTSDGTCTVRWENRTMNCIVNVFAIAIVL
UniProt Q6P1R4: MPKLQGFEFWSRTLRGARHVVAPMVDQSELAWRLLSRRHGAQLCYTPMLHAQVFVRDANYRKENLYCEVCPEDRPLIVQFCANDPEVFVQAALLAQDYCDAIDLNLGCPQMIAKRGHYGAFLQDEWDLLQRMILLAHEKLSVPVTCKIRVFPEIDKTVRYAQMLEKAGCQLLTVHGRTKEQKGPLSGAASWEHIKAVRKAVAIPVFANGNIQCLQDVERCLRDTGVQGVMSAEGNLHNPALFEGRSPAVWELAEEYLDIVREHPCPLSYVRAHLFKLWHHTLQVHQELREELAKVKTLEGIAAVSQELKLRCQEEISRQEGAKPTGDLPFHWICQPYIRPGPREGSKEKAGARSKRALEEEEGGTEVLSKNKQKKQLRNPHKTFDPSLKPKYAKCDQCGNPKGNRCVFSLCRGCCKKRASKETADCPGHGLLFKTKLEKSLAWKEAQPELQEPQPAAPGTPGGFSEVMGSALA
UniProt Q99956: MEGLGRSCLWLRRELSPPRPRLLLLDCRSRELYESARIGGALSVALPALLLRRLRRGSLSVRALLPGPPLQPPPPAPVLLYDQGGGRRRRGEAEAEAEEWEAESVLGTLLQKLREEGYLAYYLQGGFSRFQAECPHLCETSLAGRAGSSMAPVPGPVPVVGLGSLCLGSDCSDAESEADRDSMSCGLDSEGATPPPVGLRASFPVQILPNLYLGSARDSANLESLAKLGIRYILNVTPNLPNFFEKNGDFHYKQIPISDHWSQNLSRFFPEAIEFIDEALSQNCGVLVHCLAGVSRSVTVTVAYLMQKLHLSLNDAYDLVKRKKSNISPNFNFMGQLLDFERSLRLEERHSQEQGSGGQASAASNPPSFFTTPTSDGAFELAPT
UniProt Q3B7T1: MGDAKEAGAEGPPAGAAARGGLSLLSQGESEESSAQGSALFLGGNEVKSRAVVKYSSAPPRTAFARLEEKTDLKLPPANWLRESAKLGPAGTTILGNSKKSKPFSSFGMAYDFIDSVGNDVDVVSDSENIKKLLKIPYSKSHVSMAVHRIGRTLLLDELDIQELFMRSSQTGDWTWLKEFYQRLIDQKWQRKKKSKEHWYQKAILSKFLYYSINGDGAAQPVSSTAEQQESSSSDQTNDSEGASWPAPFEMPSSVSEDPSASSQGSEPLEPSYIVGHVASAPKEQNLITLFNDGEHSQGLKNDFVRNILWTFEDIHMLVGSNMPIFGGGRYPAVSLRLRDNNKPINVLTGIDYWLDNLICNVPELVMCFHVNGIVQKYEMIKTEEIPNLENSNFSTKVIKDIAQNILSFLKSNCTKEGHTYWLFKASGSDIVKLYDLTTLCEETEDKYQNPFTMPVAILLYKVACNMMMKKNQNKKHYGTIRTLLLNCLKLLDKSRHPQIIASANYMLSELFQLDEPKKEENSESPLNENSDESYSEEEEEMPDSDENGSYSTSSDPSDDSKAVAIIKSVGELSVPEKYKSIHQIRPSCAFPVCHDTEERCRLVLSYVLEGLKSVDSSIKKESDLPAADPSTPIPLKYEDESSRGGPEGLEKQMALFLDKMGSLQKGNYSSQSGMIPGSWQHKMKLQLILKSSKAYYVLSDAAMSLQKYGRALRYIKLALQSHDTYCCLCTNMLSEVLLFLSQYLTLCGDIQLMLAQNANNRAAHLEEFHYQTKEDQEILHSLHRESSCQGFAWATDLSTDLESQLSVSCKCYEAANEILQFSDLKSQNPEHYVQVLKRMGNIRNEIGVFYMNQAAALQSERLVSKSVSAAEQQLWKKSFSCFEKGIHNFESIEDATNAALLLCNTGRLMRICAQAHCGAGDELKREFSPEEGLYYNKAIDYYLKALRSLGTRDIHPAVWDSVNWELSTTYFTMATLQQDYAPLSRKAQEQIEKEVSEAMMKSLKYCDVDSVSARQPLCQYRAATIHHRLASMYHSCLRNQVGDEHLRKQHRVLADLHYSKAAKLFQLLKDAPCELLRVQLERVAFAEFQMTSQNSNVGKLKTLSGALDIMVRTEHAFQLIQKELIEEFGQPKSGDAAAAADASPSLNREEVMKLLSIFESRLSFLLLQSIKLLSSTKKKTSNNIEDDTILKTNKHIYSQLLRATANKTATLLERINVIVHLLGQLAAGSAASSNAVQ
UniProt Q05193: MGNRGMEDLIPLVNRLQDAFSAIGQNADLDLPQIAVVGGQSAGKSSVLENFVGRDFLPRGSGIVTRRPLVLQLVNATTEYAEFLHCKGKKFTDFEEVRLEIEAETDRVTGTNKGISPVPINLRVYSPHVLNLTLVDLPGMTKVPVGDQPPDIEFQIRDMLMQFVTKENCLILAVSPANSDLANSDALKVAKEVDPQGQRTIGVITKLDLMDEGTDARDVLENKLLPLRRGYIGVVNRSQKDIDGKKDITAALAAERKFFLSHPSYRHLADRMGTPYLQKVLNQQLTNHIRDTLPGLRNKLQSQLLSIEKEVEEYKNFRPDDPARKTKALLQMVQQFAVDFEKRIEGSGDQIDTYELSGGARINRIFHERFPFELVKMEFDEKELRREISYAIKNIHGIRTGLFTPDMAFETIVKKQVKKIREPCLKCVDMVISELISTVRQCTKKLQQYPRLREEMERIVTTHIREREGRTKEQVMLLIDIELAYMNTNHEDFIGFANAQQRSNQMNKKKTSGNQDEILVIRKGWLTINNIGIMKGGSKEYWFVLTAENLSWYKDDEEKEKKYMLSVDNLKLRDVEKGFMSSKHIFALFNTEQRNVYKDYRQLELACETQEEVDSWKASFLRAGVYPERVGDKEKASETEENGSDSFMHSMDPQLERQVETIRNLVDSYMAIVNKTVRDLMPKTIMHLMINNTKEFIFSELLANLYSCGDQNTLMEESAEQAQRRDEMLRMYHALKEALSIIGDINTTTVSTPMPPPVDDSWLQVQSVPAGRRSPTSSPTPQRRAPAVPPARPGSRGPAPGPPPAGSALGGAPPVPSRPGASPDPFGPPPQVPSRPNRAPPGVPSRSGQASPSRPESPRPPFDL
UniProt O95147: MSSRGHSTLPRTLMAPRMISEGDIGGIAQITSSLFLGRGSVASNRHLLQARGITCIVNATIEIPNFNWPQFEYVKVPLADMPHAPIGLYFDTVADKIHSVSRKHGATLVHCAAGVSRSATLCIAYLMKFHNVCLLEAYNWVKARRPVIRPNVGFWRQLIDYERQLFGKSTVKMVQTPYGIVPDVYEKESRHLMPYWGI
UniProt Q8WTR2: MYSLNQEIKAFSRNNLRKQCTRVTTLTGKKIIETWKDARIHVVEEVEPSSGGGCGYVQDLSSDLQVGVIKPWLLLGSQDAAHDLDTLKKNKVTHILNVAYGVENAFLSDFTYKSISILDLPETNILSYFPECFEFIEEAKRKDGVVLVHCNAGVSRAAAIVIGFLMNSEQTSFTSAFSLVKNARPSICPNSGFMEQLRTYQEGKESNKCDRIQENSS
UniProt Q9NNZ3: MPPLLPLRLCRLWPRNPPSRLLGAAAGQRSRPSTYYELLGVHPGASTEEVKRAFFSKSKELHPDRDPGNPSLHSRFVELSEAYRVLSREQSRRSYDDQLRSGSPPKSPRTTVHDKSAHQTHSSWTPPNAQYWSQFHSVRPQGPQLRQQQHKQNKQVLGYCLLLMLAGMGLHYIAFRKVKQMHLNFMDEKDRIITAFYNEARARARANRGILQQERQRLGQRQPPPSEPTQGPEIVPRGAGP

Legend:
Assay in all cases: log2 fold change, soluble protein after heating vs DMSO (PISA); higher = thermal stabilisation; K562 cells, 10 uM, 30 min; active = over 0.2 and 3.5 SD of the protein, either way, in both replicates (recomputed)
[1] = compound: CC[C@@H]1C(=O)N(C)c2cnc(Nc3ccc(C(=O)N[C@H]4CC[C@H](N5CCN(CC6CC6)CC5)CC4)cc3OC)nc2N1C(C)C [volasertib]
Procedure, shortened: (§1)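 K562 cells at 2×10^6 cells/mL were given 10 μM compound for 30 min. Aliquots then went through 3 min of heating across 48°C-58°C, were pooled, and were extracted in PBS with 0.5% NP-40 at 4°C, and the supernatant after 21,000xg for 90 min was quantified by TMTpro 16plex LC-MS/MS with channel sums equalised. Thermal stability relative to control samples, from duplicates, is given as log2 fold change.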

[2] = compound: CC[C@H](C)[C@@H](C(=O)N[C@@H]([C@@H](C)O)C(=O)N[C@@H](CC(C)C)C(=O)[C@]1(CO1)C)NC(=O)[C@H]([C@@H](C)CC)N(C)C(=O)C [epoxomicin]
Procedure, shortened: as §1

[3] = compound: CCn1c(C(=O)N(C2CC2)C2CC2)cc2c3c(ncn3C)c(Nc3cc(C)n(C)n3)nc21
Procedure, shortened: as §1

[4] = compound: CN(C)CC(=O)Nc1ccc2[nH]c(=O)c3ccccc3c2c1
Procedure, shortened: as §1

[5] = compound: CC[C@H](C)N1C=C(C2=C(C=C(C=C21)C3=CN=C(C=C3)N4CCNCC4)C(=O)NCC5=C(C=C(NC5=O)C)C)C
Procedure, shortened: as §1

[6] = compound: CCn1cc(-c2ccnc3[nH]c(-c4cccc(CN(C)C)c4)cc23)c(-c2ccc(NC(=O)N(C)C)cc2)n1
Procedure, shortened: as §1

[7] = compound: CN1C2=C(C3=C1C(=O)N(N=C3)CC4=CC(=CC=C4)N)SC(=C2)S(=O)C
Procedure, shortened: as §1

[8] = compound: CN1CCC(CNc2ccc3ncc(-c4cccc(OC(F)(F)F)c4)n3n2)CC1
Procedure, shortened: as §1

[9] = compound: CN(CCOC1=CC=C(C=C1)C[C@H]2C(=O)NC(=O)S2)C3=CC=CC=N3 (racemic) [rosiglitazone]
Procedure, shortened: as §1

[10] = compound: CC[C@@H]1C(=O)N(C)c2cnc(Nc3ccc(C(=O)NC4CCN(C)CC4)cc3OC)nc2N1C1CCCC1
Procedure, shortened: as §1

Measured: log2 fold change

DYNC2LI1 isoform 2 (UniProt Q8TCX1)
inactive: [1] -0.069 | [2] 0.011 | [3] -0.038 | [4] -0.215

EDEM2 (UniProt Q9BV94)
inactive: [1] -0.159 | [5] -0.035 | [2] -0.006 | [6] -0.087 | [4] -0.001 | [7] -0.003 | [8] 0.161

E4F1 (UniProt Q66K89)
inactive: [1] 0 | [2] 0.035 | [6] -0.029 | [4] -0.103 | [9] -0.192 | [7] -0.023 | [8] -0.009

DOLK (UniProt Q9UPQ8)
inactive: [5] -0.041 | [2] 0.037 | [3] -0.015 | [9] 0.089

2 records drawn at random from the list so far, as already listed:
DYNC2LI1 isoform 2 (UniProt Q8TCX1)
inactive: [1] -0.069 | [2] 0.011 | [3] -0.038 | [4] -0.215

E4F1 (UniProt Q66K89)
inactive: [1] 0 | [2] 0.035 | [6] -0.029 | [4] -0.103 | [9] -0.192 | [7] -0.023 | [8] -0.009

Following part:

DYNLT3 (UniProt P51808)
inactive: [10] 0.182 | [5] -0.015 | [9] 0.059

DUS1L (UniProt Q6P1R4)
inactive: [3] 0.177 | [6] -0.129 | [8] -0.047

DUSP9 (UniProt Q99956)
inactive: [5] -0.386 | [2] -0.177 | [3] -0.204 | [4] 0.036 | [7] 0.179

DUSP12 (UniProt V9GYV5)
inactive: [2] -0.085 | [4] -0.125

EDRF1 (UniProt Q3B7T1)
inactive: [10] 0.046 | [2] 0.009 | [6] -0.046 | [7] 0.006 | [8] -0.014

DNM1 (UniProt Q05193)
inactive: [2] -0.334 | [3] 0.077 | [6] -0.026 | [4] -0.028 | [8] -0.222

DUSP14 (UniProt O95147)
inactive: [2] 0.358 | [3] -0.071 | [6] -0.039 | [4] 0.051 | [9] -0.016 | [7] -0.157 | [8] 0.24

DUSP19 (UniProt Q8WTR2)
inactive: [3] -0.088

DNAJC4 (UniProt Q9NNZ3)
inactive: [1] -0.149
